Results: ChEMBL document CHEMBL4622967, “Selective Class I HDAC Inhibitors Based on Aryl Ketone Zinc Binding Induce HIV-1 Protein for Clearance” (ACS Med Chem Lett, 2020)

Sequences of proteins named here, by UniProt entry; tags and fusion partners are left off. A change or cut given only in a name is not applied to a line headed by its entry.
UniProt P56524: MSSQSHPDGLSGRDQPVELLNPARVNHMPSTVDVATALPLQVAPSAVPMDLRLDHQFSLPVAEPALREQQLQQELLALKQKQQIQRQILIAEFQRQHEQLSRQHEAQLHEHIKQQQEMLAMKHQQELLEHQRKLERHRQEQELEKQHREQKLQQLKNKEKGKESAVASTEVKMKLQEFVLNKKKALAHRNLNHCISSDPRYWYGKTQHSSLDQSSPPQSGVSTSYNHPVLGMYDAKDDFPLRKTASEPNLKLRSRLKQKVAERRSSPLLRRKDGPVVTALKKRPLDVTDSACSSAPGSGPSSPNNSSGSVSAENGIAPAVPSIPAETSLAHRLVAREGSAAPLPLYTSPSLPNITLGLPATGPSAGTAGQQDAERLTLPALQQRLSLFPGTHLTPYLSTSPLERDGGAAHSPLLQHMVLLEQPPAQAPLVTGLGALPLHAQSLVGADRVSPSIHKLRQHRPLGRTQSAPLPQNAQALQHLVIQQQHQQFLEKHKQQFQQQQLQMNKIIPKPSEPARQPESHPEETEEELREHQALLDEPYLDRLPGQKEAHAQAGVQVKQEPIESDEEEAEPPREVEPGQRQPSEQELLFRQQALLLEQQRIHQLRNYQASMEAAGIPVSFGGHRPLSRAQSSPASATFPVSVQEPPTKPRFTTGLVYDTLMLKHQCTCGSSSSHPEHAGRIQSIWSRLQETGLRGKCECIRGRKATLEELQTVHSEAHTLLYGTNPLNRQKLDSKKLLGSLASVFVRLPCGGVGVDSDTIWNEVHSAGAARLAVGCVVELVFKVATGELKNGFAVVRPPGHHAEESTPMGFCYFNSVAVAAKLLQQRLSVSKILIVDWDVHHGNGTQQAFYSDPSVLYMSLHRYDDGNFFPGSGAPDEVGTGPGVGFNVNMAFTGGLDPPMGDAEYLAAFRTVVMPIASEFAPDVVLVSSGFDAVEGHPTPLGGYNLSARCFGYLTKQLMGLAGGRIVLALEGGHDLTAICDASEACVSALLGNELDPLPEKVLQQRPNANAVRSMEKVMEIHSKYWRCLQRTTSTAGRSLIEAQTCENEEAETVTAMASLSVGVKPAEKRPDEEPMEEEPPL
UniProt Q9UQL6: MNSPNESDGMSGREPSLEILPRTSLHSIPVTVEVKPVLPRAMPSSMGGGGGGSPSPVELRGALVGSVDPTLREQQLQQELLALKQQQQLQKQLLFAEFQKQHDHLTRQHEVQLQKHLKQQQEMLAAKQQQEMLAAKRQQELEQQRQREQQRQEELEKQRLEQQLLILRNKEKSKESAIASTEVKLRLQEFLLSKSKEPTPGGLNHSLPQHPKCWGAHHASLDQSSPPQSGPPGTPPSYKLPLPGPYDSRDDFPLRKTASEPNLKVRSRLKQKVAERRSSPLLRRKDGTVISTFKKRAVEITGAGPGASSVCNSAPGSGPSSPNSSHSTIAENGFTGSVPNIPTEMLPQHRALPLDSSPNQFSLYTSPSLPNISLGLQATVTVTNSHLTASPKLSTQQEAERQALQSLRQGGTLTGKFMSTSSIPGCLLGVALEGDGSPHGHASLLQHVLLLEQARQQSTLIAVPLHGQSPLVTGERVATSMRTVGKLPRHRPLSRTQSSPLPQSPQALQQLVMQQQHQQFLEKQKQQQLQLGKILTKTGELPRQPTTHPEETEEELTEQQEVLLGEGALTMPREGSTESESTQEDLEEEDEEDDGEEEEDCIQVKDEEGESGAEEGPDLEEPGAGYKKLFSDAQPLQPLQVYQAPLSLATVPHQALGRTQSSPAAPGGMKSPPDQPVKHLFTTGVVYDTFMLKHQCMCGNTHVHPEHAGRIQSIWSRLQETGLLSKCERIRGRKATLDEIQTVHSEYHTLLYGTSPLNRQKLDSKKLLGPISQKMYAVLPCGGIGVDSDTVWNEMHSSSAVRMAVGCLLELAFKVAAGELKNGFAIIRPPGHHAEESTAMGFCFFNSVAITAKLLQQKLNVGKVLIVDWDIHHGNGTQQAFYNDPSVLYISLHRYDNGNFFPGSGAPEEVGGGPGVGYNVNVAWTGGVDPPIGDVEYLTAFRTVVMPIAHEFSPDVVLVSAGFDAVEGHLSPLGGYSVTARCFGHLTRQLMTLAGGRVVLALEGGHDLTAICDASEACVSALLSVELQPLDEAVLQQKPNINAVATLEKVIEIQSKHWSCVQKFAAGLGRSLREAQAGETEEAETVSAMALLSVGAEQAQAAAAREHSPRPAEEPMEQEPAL

Columns and labels:
[1] = biological target: Histone deacetylase 4 (Homo sapiens, UniProt P56524)
[2] = biological target: Histone deacetylase 5 (Homo sapiens, UniProt Q9UQL6)
[3] = biological target: T1, Histone deacetylase 7 (Homo sapiens, UniProt Q8WUI4)
T1 sequence (Q8WUI4 whole entry): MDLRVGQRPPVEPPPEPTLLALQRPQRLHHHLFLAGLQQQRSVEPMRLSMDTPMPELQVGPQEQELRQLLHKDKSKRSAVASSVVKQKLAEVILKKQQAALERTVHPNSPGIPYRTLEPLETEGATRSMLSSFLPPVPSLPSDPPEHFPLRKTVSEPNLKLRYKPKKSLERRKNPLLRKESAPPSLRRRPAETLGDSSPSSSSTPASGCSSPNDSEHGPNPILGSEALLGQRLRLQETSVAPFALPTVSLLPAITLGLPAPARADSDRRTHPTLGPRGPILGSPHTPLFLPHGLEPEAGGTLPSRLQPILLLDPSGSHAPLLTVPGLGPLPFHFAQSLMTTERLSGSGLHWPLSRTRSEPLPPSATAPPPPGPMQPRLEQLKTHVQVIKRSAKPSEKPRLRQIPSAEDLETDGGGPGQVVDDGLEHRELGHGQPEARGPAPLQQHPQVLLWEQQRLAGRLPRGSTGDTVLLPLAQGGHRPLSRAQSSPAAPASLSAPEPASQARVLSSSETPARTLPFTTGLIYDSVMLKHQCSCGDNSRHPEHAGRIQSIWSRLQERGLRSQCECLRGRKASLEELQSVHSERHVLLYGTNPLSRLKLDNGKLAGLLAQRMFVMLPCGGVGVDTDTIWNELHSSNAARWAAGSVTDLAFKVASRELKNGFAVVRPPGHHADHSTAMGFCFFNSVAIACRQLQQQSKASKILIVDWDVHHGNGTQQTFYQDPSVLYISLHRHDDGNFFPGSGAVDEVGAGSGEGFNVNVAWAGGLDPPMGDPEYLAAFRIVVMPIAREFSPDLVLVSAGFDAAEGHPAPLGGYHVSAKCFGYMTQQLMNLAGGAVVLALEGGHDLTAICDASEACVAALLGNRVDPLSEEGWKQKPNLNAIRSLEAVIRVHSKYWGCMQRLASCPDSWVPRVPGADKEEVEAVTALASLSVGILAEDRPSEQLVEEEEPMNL

[4] = biological target: T2, Histone deacetylase 11 (Homo sapiens, UniProt Q96DB2)
T2 sequence (Q96DB2 whole entry): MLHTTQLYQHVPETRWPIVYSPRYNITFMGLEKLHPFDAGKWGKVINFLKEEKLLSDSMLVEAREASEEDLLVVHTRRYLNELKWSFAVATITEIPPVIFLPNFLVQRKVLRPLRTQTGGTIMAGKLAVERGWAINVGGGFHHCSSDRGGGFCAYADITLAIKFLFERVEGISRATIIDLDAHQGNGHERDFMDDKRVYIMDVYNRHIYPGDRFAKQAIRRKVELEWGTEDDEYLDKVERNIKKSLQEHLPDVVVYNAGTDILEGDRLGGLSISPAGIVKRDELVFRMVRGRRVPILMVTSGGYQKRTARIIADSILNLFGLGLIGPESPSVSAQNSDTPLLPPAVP

[5] = in vivo; conditions: mouse, iv, 2 mg/kg
[6] = in vivo; conditions: mouse, iv, 2 mg/kg; remark: listed apart in the source
[7] = in vivo; conditions: mouse, iv, 2 mg/kg; remark: listed apart in the source
[8] = in vivo; conditions: mouse, po, 10 mg/kg
[9] = in vivo; conditions: mouse, po, 10 mg/kg; remark: listed apart in the source
[10] = in vivo; conditions: mouse, po, 10 mg/kg; remark: listed apart in the source
[11] = in vivo; conditions: rat, iv, 0.5 mg/kg
[12] = in vivo; conditions: rat, iv, 0.5 mg/kg; remark: listed apart in the source
[13] = in vivo; conditions: rat, iv, 0.5 mg/kg; remark: listed apart in the source
[14] = in vivo; conditions: rat, po, 5 mg/kg
[15] = in vivo; conditions: rat, po, 5 mg/kg; remark: listed apart in the source
[16] = in vivo; conditions: rat, po, 5 mg/kg; remark: listed apart in the source
[17] = in vivo; conditions: dog, iv, 1 mg/kg
[18] = in vivo; conditions: dog, iv, 1 mg/kg; remark: listed apart in the source
[19] = in vivo; conditions: dog, iv, 1 mg/kg; remark: listed apart in the source
[20] = in vivo; conditions: dog, po, 2 mg/kg
[21] = in vivo; conditions: dog, po, 2 mg/kg; remark: listed apart in the source
[22] = in vivo; conditions: dog, po, 2 mg/kg; remark: listed apart in the source
[23] = in vitro; conditions: mouse, plasma
[24] = in vitro; conditions: rat, plasma
[25] = in vitro; conditions: dog, plasma
[26] = in vitro; conditions: human, plasma

CN1CC(C(=O)N[C@@H](CCCCCC(=O)c2ccon2)c2ncc(-c3ccccc3F)[nH]2)C1
IC50 [1]: > 50 µM | IC50 [2]: > 50 µM | IC50 [3]: > 50 µM | IC50 [4]: > 50 µM | clearance [5]: 54 mL/min/kg | Vd [6]: 3.9 L/kg | half-life [7]: 5.2 h | Cmax [8]: 480 nM | Tmax [9]: 0.25 h | bioavailability [10]: 18% | clearance [11]: 156 mL/min/kg | Vd [12]: 37 L/kg | half-life [13]: 5.5 h | Cmax [14]: 50 nM | Tmax [15]: 0.38 h | bioavailability [16]: 16% | clearance [17]: 61 mL/min/kg | Vd [18]: 1.5 L/kg | half-life [19]: 2.3 h | Cmax [20]: 71 nM | Tmax [21]: 0.75 h | bioavailability [22]: 7.2% | fraction unbound [23]: 0.038 | fraction unbound [24]: 0.114 | fraction unbound [25]: 0.088 | fraction unbound [26]: 0.085
